# Part of at least one peptide drawing is inferred or uncertain, most often the ends. Where no end group is shown, it is not given here.
# Tests used:
# Type in all cases: in vivo, human
# [1] = system: women with diagnosed secondary infertility; assay: Action on reproductive function, Group V clinical cases
# [2] = system: sexual function of healthy women; assay: Sexual function on quantified SFW scale, Group I healthy women
# [3] = system: women with orgasmic dysfunction; assay: Sexual function on quantified SFW scale, Group III
# [4] = Group I n=8, before treatment 0 (0%)
# [5] = Group I n=8, before treatment 4.0
# [6] = Group I n=8, before treatment 4 (50%)
# [7] = Group I n=8, before treatment 8 (100%)
# [8] = Group III n=31, before treatment 0
substance,measurement,setting,value
"TKPRPGP [heptapeptide, Thr-Lys-Pro-Arg-Pro-Gly-Pro]","Time after treatment until pregnancy ensued, Patient A",[1]; 0.1% solution intranasally for 15 days,3 months
same,"Time after treatment until pregnancy ensued, Patient B",[1]; 0.1% solution intranasally for 30 days,4 months
same,"Pregnancy outcome, Patient B","[1]; person, infertility 2, endocrine form, 0.1% solution intranasally for 30 days",pregnancy ensued
same,"Pregnancy outcome, Patient A","[1]; person, infertility 2, endometriosis, 0.1% solution intranasally for 15 days",pregnancy ensued
same,Patients in whom the effect had begun by the end of the first twenty-four hours,[2]; Group I,half the patients
same,Presence of an effect at the end of the course,[2]; Group I,all the patients
same,"Attitude toward sexual activity, mean time for onset of effect",[2]; Group I n=8,10.8 days
same,"General physical state after sexual acts, mean time for onset of effect",[2]; Group I n=8,10.8 days
same,"Level of sexual activity, mean time for onset of effect",[2]; Group I n=8,10.8 days
same,"Lubrication, mean time for onset of effect",[2]; Group I n=8,10.8 days
same,"Mood after sexual acts, mean time for onset of effect",[2]; Group I n=8,10.8 days
same,"Onset of orgasm, mean time for onset of effect",[2]; Group I n=8,5.8 days
same,"Reinforcement of effect on the quantified SFW scale, all indicators",[2]; Group I n=8,1 score
same,Attitude toward sexual activity score 5 (intense enjoyment): number of patients (%) after treatment,[2]; [4],8 (100%)
same,General physical state after sex acts score 5 (satisfaction and fatigue): number of patients (%) after treatment,[2]; [4],8 (100%)
same,Level of sexual activity score 5 (daily): number of patients (%) after treatment,[2]; [4],6 (75%)
same,Libido score 6 (several times a day): number of patients (%) after treatment,[2]; [4],0 (0%)
same,Lubrication score 5 (sets in rapidly): number of patients (%) after treatment,[2]; [4],8 (100%)
same,Mood after sex acts score 5 (feeling of gratitude to man): number of patients (%) after treatment,[2]; [4],6 (75%)
same,Onset of orgasm score 5 (more than 80% of the sex acts): number of patients (%) after treatment,[2]; [4],8 (100%)
same,Level of sexual activity score 3 (monthly): number of patients (%) after treatment,"[2]; Group I n=8, before treatment 2 (25%)",0 (0%)
same,"Level of sexual activity, score after treatment","[2]; Group I n=8, before treatment 3.8",4.7 points
same,"Attitude toward sexual activity, score after treatment",[2]; [5],5.0 points
same,"General physical state after sexual acts, score after treatment",[2]; [5],4.7 points
same,"Libido, score after treatment",[2]; [5],5.0 points
same,"Lubrication, score after treatment",[2]; [5],5.0 points
same,"Mood after sexual acts, score after treatment",[2]; [5],5.0 points
same,"Onset of orgasm, score after treatment",[2]; [5],5.0 points
same,Libido score 4 (weekly): number of patients (%) after treatment,[2]; [6],0 (0%)
same,Libido score 5 (daily): number of patients (%) after treatment,[2]; [6],8 (100%)
same,Level of sexual activity score 4 (weekly): number of patients (%) after treatment,"[2]; Group I n=8, before treatment 6 (75%)",2 (25%)
same,Attitude toward sexual activity score 4 (enjoyment depends on menesis): number of patients (%) after treatment,[2]; [7],0 (0%)
same,General physical state after sex acts score 4 (sensation of a release of arousal): number of patients (%) after treatment,[2]; [7],0 (0%)
same,Lubrication score 4 (depends on presence of attraction): number of patients (%) after treatment,[2]; [7],0 (0%)
same,Mood after sex acts score 4 (recognition of duty fulfilled): number of patients (%) after treatment,[2]; [7],2 (25%)
same,Onset of orgasm score 4 (in half of the sex acts): number of patients (%) after treatment,[2]; [7],0 (0%)
same,"Attitude toward sexual activity: patients with onset of effect, number (%)","[2]; Group I n=8, day 1",4 (50%)
same,"General physical state after sexual acts: patients with onset of effect, number (%)","[2]; Group I n=8, day 1",4 (50%)
same,"Level of sexual activity: patients with onset of effect, number (%)","[2]; Group I n=8, day 1",4 (50%)
same,"Lubrication: patients with onset of effect, number (%)","[2]; Group I n=8, day 1",4 (50%)
same,"Mood after sexual acts: patients with onset of effect, number (%)","[2]; Group I n=8, day 1",4 (50%)
same,"Onset of orgasm: patients with onset of effect, number (%)","[2]; Group I n=8, day 1",4 (50%)
same,"Libido: patients with onset of effect, number (%)","[2]; Group I n=8, day 1 of drug administration",8 (100%)
same,"Attitude toward sexual activity: patients with onset of effect, number (%)","[2]; Group I n=8, day 5",4 (50%)
same,"General physical state after sexual acts: patients with onset of effect, number (%)","[2]; Group I n=8, day 5",4 (50%)
same,"Level of sexual activity: patients with onset of effect, number (%)","[2]; Group I n=8, day 5",4 (50%)
same,"Lubrication: patients with onset of effect, number (%)","[2]; Group I n=8, day 5",4 (50%)
same,"Mood after sexual acts: patients with onset of effect, number (%)","[2]; Group I n=8, day 5",4 (50%)
same,"Onset of orgasm: patients with onset of effect, number (%)","[2]; Group I n=8, day 5",8 (100%)
same,"Libido: patients with onset of effect, number (%)","[2]; Group I n=8, day 5 of drug administration",8 (100%)
same,"Attitude toward sexual activity: patients with onset of effect, number (%)","[2]; Group I n=8, day 10",8 (100%)
same,"General physical state after sexual acts: patients with onset of effect, number (%)","[2]; Group I n=8, day 10",8 (100%)
same,"Level of sexual activity: patients with onset of effect, number (%)","[2]; Group I n=8, day 10",8 (100%)
same,"Lubrication: patients with onset of effect, number (%)","[2]; Group I n=8, day 10",8 (100%)
same,"Mood after sexual acts: patients with onset of effect, number (%)","[2]; Group I n=8, day 10",8 (100%)
same,"Onset of orgasm: patients with onset of effect, number (%)","[2]; Group I n=8, day 10",8 (100%)
same,"Libido: patients with onset of effect, number (%)","[2]; Group I n=8, day 10 of drug administration",8 (100%)
same,"Attitude toward sexual activity: patients with onset of effect, number (%)","[2]; Group I n=8, day 15",8 (100%)
same,"General physical state after sexual acts: patients with onset of effect, number (%)","[2]; Group I n=8, day 15",8 (100%)
same,"Level of sexual activity: patients with onset of effect, number (%)","[2]; Group I n=8, day 15",8 (100%)
same,"Lubrication: patients with onset of effect, number (%)","[2]; Group I n=8, day 15",8 (100%)
same,"Mood after sexual acts: patients with onset of effect, number (%)","[2]; Group I n=8, day 15",8 (100%)
same,"Onset of orgasm: patients with onset of effect, number (%)","[2]; Group I n=8, day 15",8 (100%)
same,"Libido: patients with onset of effect, number (%)","[2]; Group I n=8, day 15 of drug administration",8 (100%)
same,"Onset of orgasm, share of sex acts after a course of administration","[2]; Group I, a score of 5, before: half of all sex acts",80-100%
same,Women in whom sex acts occurred daily,"[2]; Group I, after course",75%
same,"Libido, mean time for onset of effect","[2]; Group I, n = 4",1.0 days
same,"Increase of level of sexual activity, score on the quantified SFW scale",[3]; Group III,not more than 1 score
same,Patients in whom sexual activity increased,[3]; Group III,27.6%
same,Restoration with highly pronounced change in the indicators of sexual function (evaluated at 2 on the SFW scale),[3]; Group III,does not yield restoration
same,"Attitude toward sexual activity, mean time for onset of effect",[3]; Group III n=31,10.7 days
same,"General physical state after sexual acts, mean time for onset of effect",[3]; Group III n=31,10.7 days
same,"Level of sexual activity, mean time for onset of effect",[3]; Group III n=31,5.0 days
same,"Libido, mean time for onset of effect",[3]; Group III n=31,5.5 days
same,"Lubrication, mean time for onset of effect",[3]; Group III n=31,10.3 days
same,"Mood after sexual acts, mean time for onset of effect",[3]; Group III n=31,10.6 days
same,"Onset of orgasm, mean time for onset of effect",[3]; Group III n=31,10.5 days
same,Attitude toward sexual activity score 5 (intense enjoyment): number of patients after treatment,[3]; [8],8
same,General physical state after sex acts score 5 (satisfaction and fatigue): number of patients after treatment,[3]; [8],8
same,Level of sexual activity score 5 (daily): number of patients after treatment,[3]; [8],0
same,Libido score 5 (daily): number of patients after treatment,[3]; [8],8
same,Libido score 6 (several times a day): number of patients after treatment,[3]; [8],0
same,Lubrication score 5 (sets in rapidly): number of patients after treatment,[3]; [8],6
same,Mood after sex acts score 5 (feeling of gratitude toward man): number of patients after treatment,[3]; [8],8
same,Onset of orgasm score 2 (only during erotic dreams): number of patients after treatment,[3]; [8],0
same,Onset of orgasm score 5 (more than 80% of the sex acts): number of patients after treatment,[3]; [8],8
same,Level of sexual activity score 5 (daily): percent of patients after treatment,"[3]; Group III n=31, before treatment 0%",(0%)
same,Attitude toward sexual activity score 5 (intense enjoyment): percent of patients after treatment,"[3]; Group III n=31, before treatment 0.0%",(25.8%)

# Reference: US8883741B2, “Stimulator of genital, sexual and reproductive function” (Bio Peptid Company Limited, priority 2009, dated 2014)
